Experimental data as given in the supplement of paper PMC5949888.
± gives the standard deviation of the averaged measurements. Most values lie at the floor of the assay. Slopes are relative: functional sequences can read slightly below zero.

These substances were tested on Saccharomyces cerevisiae PS128 hsf1 delta, HSF1(1-493) fusion (assay: growth estimate (transactivation domain function in HSF1 fusion, heat-shock survival) (a.u. (slope of normalised read count over time)); higher = stronger growth at 37°C, i.e. more transactivation activity). Settings: library: random library.

Substance | growth estimate
PARGSQLVEWECCRGRSC | < -0.25
PARTS | < -0.25
PAS | < -0.25
PASKSRA | < -0.25
PASLPTALQWQGSIYGSLF | -0.152
PAVADGRVPRTSLDSTWFPQ | < -0.25
PAVF | < -0.25
PAVGPPS | < -0.25
PAVQGNKWRKSIGNQTVLLS | < -0.25
PAWLIQIHLRRLPRENALAR | < -0.25
PAYGFH | < -0.25
PCAMCCQYKRGCVSVAIQEA | < -0.25
PCF | < -0.25
PCGRLNPAMLHDRSQRA | < -0.25
PCIPDKFERDVNTSRASE | < -0.25
PCLVSAVSEGTWSVSVPRVS | < -0.25
PCQIDLYREPR | -0.246
PCRSDSE | < -0.25
PCS | < -0.25
PCSIAAC | < -0.25
PCSL | < -0.25
PCTLRRWVNGLARRSPV | < -0.25
PCTPSYLTASKWQRIRAVCV | < -0.25
PCTVRR | < -0.25
PCVKWLWES | -0.245
PCYI | < -0.25

Reprinted from the results shown for reference:
Substance | growth estimate
PASLPTALQWQGSIYGSLF | -0.152
PAVADGRVPRTSLDSTWFPQ | < -0.25
PAVF | < -0.25
PAVGPPS | < -0.25
PAVQGNKWRKSIGNQTVLLS | < -0.25
PAWLIQIHLRRLPRENALAR | < -0.25
PAYGFH | < -0.25

Remaining list, next part.

Substance | growth estimate
PDAEPGP | < -0.25
PDAEWAATIVLRSLCRRPIP | < -0.25
PDAFSQEVFA | < -0.25
PDAKSRSVIWSQTG | < -0.25
PDANLAFG | < -0.25
PDGAI | < -0.25
PDGFDSTSCTIESQDKLVRL | < -0.25
PDIRLKRAETYGMDCKECCS | < -0.25
PDLAVISNICYPAQADYGGL | < -0.25
PDMKLRLHLRLFSRLMIAR | < -0.25
PDNTAGNSYAEGAAAKLALE | < -0.25
PDPTRVG | < -0.25
PDSNWFFFYT | < -0.25
PDTTGL | < -0.25
PDTYLSADRAQV | < -0.25
PDVADLHLGQGLGD | < -0.25
PDVRAIRASSVESLGISGST | < -0.25
PDVS | < -0.25
PDWISGCTPKFRVRWGPELR | < -0.25
PDY | < -0.25
PDYSIEC | < -0.25
PECCPLARYGYGLRWL | < -0.25
PECTRCGTSPLAVS | < -0.25
PEGPMSGVGHLHRGRCRILL | < -0.25
PEGT | < -0.25
PEGYVPPRLGFNFT | -0.246

Two records picked at random from those above:
Substance | growth estimate
PAVF | < -0.25
PCSIAAC | < -0.25

Carrying on:

Substance | growth estimate
PEHLKASRTRVRGLYALIEH | < -0.25
PEIRRSPVISVLLCR | < -0.25
PEIVTCSGRVDRRQN | < -0.25
PELEAPKYECPRTDNVVVDS | < -0.25
PELNDCPYKVVVSRVKDVSR | -0.25
PELNRTFSRGQRARRRPAVT | < -0.25
PELRSLARNAALKALQHGLV | < -0.25
PEPSTSA | < -0.25
PEQSDAFRWSCIVTQLGIHF | < -0.25
PERHESFR | -0.246
PESHILGGPQDYWTPIASLS | < -0.25
PESP | < -0.25
PEVVVLGNVA | < -0.25
PEYSLWRWQCVSS | < -0.25
PEYYHMRHFHHGVIPRRVRR | < -0.25
PFDTPSICEAEIRSFHCVVS | < -0.25
PFG | -0.248 ± 0.003
PFGCVRTV | < -0.25
PFGTVEPGSRRPQRQMGGPR | < -0.25
PFHKFGYI | < -0.25
PFKWCWNCGVHCVTDKIHST | < -0.25
PFLSAFRH | < -0.25
PFPTLADGYQALLRVPIRVV | < -0.25
PFRGEGTCVVDVLTYIEPYV | < -0.25
PFRRSMNRNGWRVCCLGNKS | -0.243
PFT | < -0.25

Substance | growth estimate
PFVPFLCRI | < -0.25
PFVVLMSSASPWV | -0.144
PFWKATEGHKYSRISDAYRA | < -0.25
PFWKINL | < -0.25
PFYAPRFGRFKSLWSDRNGS | -0.245
PFYSTVIDGNTDVCGCLSFI | -0.123
PGDGMGLAHSV | < -0.25
PGDLVLVWRVSGSC | < -0.25
PGDSSVGSPLNIRQFPSLVT | < -0.25
PGEVQSRMS | < -0.25
PGFCDPDESDTGNEMLDNLA | < -0.25
PGFTRFYGPRGCAGKGLK | < -0.25
PGGSYLSQSSWIRKV | < -0.25
PGHIQICDMVSWLYVGLGGR | < -0.25
PGILL | < -0.25
PGIRHQGILNKFFLSYVL | < -0.25
PGKLCISEYRLSLFQVLAER | < -0.25
PGLES | < -0.25
PGLLRWRRV | < -0.25
PGLRSPLRTEGMRW | < -0.25
PGLRTKVYSAQQIANLIFSA | < -0.25
PGLSKVPGGVSAWEQKRRGP | < -0.25
PGM | < -0.25
PGNN | < -0.25
PGPLV | < -0.25
PGPRELSRGRQ | < -0.25

Substance | growth estimate
PGQLQIGGPVSPLYLSLRDW | < -0.25
PGRA | < -0.25
PGRAPSFAANHPARIRERTQ | < -0.25
PGRATGDNPTHRITCFGESP | < -0.25
PGRDEALN | < -0.25
PGRMSWSMLRGGWS | < -0.25
PGRVSAIGGGNRPFHVISPS | < -0.25
PGSTASRNSRIVYLHCERPR | < -0.25
PGTCMPVYHRPKLTRRSP | < -0.25
PGTFGVRTVSYNDSRASLDL | < -0.25
PGTLSVQPIRG | < -0.25
PGTLTANSQVTRIYVGFPSG | < -0.25
PGTSNG | 0.135
PGTWE | < -0.25
PGVKTQGYGGAKRGGQCRYY | < -0.25
PGVLSDIKA | < -0.25
PGVLSPIIRGQVRSRGGART | < -0.25
PGVPGNPRLSCVGRYSRSG | < -0.25
PGVRIVHLSWAGC | < -0.25
PGWILLCKDIRNNMVCGCNT | < -0.25
PHAIALLSRLWTSTEFLLCS | < -0.25
PHAR | < -0.25
PHCS | < -0.25
PHCVT | < -0.25
PHDVYKVEKGFFTATF | < -0.25
PHFPTGIRVACVDHSVSPVT | < -0.25

Substance | growth estimate
PHFQPSYCCAYRSVNPCTDR | < -0.25
PHGP | < -0.25
PHHLARLAYNDDWRRLHGEI | < -0.25
PHKLRDECNVMNTLWEQTR | < -0.25
PHLYLVSGGRFVKLIQFR | < -0.25
PHPHLRDRCHYIWCLQSLRR | < -0.25
PHPWDHFSPNSSRVMSFRGG | < -0.25
PHQITCCSDQHSSFT | < -0.25
PHREGISMKS | < -0.25
PHTRETDKM | -0.246
PHVISSACGVTSPRFRPEGP | < -0.25
PHVLSPGFGDRYRSLSPFKF | < -0.25
PHVYNHVKR | < -0.25
PIARASSNEDAHPRQMTHRP | < -0.25
PIAVVGMINEQYGEIN | < -0.25
PIFS | < -0.25
PIFTLVLGIRLATNFIG | < -0.25
PIGGSRGWFHGQSARPHLGP | < -0.25
PIGISLSQVAKPVKLAIPYP | < -0.25
PIGSPLV | < -0.25
PIHHSSW | < -0.25
PILG | < -0.25
PIQETLG | -0.245
PIQHPSRLDRTDACAKCPAV | < -0.25
PIRGIWNSDRPNSVP | < -0.25
PIRITYETCTKSRWLPA | < -0.25

Substance | growth estimate
PIRRSVVVILKLIAHQFDQG | < -0.25
PIRRTIVVDQVDHRTRQEAL | < -0.25
PIRTNGFVWGNARQGVRRL | < -0.25
PIRYNAAGARYVAFNTVVLR | < -0.25
PISAFWYEKSANPFQVSNR | < -0.25
PISAG | < -0.25
PITSK | < -0.25
PITVQLVESEPLSGNTWAED | < -0.25
PIWGPP | < -0.25
PIYKYGRQKFRIIISFSLKS | < -0.25
PIYRDLGLRVSF | < -0.25
PIYYLRNSFPYSPVSNRYSG | < -0.25
PKACLLCFHDCLVV | < -0.25
PKAVRMRGSKAPSVRLPGSK | -0.107
PKEYKVLVCLASLFTWGPVP | < -0.25
PKFGV | < -0.25
PKGPLSLHSTCKAHPFCTLP | < -0.25
PKIYRPTRCRRGRLRSMRGY | -0.245
PKNSNPFIRKPLEMLQIVAP | < -0.25
PKRTMARTELESLSELRESR | < -0.25
PKSGVS | < -0.25
PKSLVSGGARRALSR | < -0.25
PKVEFCRALRSDLSRRLGSG | < -0.25
PLAARLLTL | < -0.25
PLCGDLDLGCRSSPRIYIFL | < -0.25
PLDSTSFGHIFWSWGSLLGT | < -0.25

Substance | growth estimate
PLERAVEMGGGPHRRRYVFR | < -0.25
PLESG | < -0.25
PLFNRTPIVGSSIICS | < -0.25
PLGLGVRGSRSSRKLTR | < -0.25
PLGMHRTTAS | -0.243
PLGNTTKTGEGIRIWSALSI | < -0.25
PLGPRNQEYGCAGYVGNDKS | -0.24
PLGRSGWVWLLLDPARFT | < -0.25
PLHLVWLVLGGCA | < -0.25
PLL | < -0.25
PLLASS | < -0.25
PLLRDTKVQVLS | < -0.25
PLLVLNTS | < -0.25
PLMFASGWQSTAL | < -0.25
PLNVWPSLN | < -0.25
PLPDTLWVKGVVQRPGPGGD | < -0.25
PLPHGRRRLGGGQAA | < -0.25
PLPVQSV | < -0.25
PLREPAPCTGEWATGCESRL | < -0.25
PLRNIAFCGSILMRSAWPSW | < -0.25
PLSDGGAGTSSFVYSFGPTS | < -0.25
